Laboratory results as given in paper doi:10.1101/2025.10.21.683613.
These are yes or no findings as the source states them, for the method shown. Binding seen in cells or lysates may run through a third protein. Some entries that bind do so weakly or less than the wild type. Where a sequence is shown, tags or fusion partners need not be part of it.

Protein sequences, listed by entry. Tags and fused reporters are not part of them. Lines headed by an entry give the natural chain unless they say otherwise; changes in a name come on top.
UniProt P62258, whole entry: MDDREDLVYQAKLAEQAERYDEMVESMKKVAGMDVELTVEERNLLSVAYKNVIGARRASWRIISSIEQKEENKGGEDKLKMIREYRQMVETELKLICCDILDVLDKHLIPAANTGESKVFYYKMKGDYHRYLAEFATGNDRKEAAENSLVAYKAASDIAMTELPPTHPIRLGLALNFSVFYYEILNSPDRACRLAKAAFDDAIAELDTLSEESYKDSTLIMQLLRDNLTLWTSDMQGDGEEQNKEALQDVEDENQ

Assays:
Assay in all cases: co-IP
[1] = target: HA-14-3-3ε^AAA (E251-253A) (UniProt P62258)
[2] = target: HA-14-3-3ε^K50/215R (UniProt P62258)
[3] = target: HA-14-3-3ε^WT (UniProt P62258)

Measured: binding

B1: Flag-RIG-I (protein, UniProt O95786 1-925)
chain: MTTEQRRSLQAFQDYIRKTLDPTYILSYMAPWFREEEVQYIQAEKNNKGPMEAATLFLKFLLELQEEGWFRGFLDALDHAGYSGLYEAIESWDFKKIEKLEEYRLLLKRLQPEFKTRIIPTDIISDLSECLINQECEEILQICSTKGMMAGAEKLVECLLRSDKENWPKTLKLALEKERNKFSELWIVEKGIKDVETEDLEDKMETSDIQIFYQEDPECQNLSENSCPPSEVSDTNLYSPFKPRNYQLELALPAMKGKNTIICAPTGCGKTFVSLLICEHHLKKFPQGQKGKVVFFANQIPVYEQQKSVFSKYFERHGYRVTGISGATAENVPVEQIVENNDIIILTPQILVNNLKKGTIPSLSIFTLMIFDECHNTSKQHPYNMIMFNYLDQKLGGSSGPLPQVIGLTASVGVGDAKNTDEALDYICKLCASLDASVIATVKHNLEELEQVVYKPQKFFRKVESRISDKFKYIIAQLMRDTESLAKRICKDLENLSQIQNREFGTQKYEQWIVTVQKACMVFQMPDKDEESRICKALFLYTSHLRKYNDALIISEHARMKDALDYLKDFFSNVRAAGFDEIEQDLTQRFEEKLQELESVSRDPSNENPKLEDLCFILQEEYHLNPETITILFVKTRALVDALKNWIEGNPKLSFLKPGILTGRGKTNQNTGMTLPAQKCILDAFKASGDHNILIATSVADEGIDIAQCNLVILYEYVGNVIKMIQTRGRGRARGSKCFLLTSNAGVIEKEQINMYKEKMMNDSILRLQTWDEAVFREKILHIQTHEKFIRDSQEKPKPVPDKENKKLLCRKCKALACYTADVRVIEECHYTVLGDAFKECFVSRPHPKPKQFSSFEKRAKIFCARQNCSHDWGIHVKYKTFEIPVIKIESFVVEDIATGVQTLYSKWKDFHFEKIPFDPAEMSK
binds: [1] | [2] | [3]
